The test system of this assay is Ace-induced Isc response by T84 cell monolayers. Description: cells. The assay is classed as cell-based. The following applies: Homo sapiens, T84, read-out: inhibition of peak Ace-induced Isc.

A word on the inhibition: it is the drop in the measured response relative to a control, in per cent. For the molecule `CN[C@@H]1C[C@H]2O[C@@](C)([C@@H]1OC)n1c3ccccc3c3c4c(c5c6ccccc6n2c5c31)C(=O)NC4` [staurosporine], the inhibition at 0.1 µM worked out at 45%.

(Values after patent US7582424B2 (priority 2000, dated 2009).)
